Laboratory results: PubChem BioAssay AID1259276 (Sanger Institute, 2017)

Screen: 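Find kinases whose silencing cuts viability alone or combined with BYL719, cetuximab or trametinib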 (primary screen)
System: human C2BBe1 colorectal cancer cells
Knock-down reagent: siRNA pool against human genes
Challenge: DMSO vehicle, or one anchor drug: BYL719 at 1 µM, cetuximab at 5 µg/ml, or trametinib at 10 nM; exposure length not stated
Measurement: 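Viability after knock-down relative to non-targeting siRNA controls, averaged across replicates, given as ratio and control-derived robust z-score, with per-drug synergy scores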
Scale: viability robust z-score, siRNA alone: higher = more viable cells after knock-down
Hit rule: 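Called essential when knock-down alone gives a viability robust z-score below -3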
Calls: active = essential (siRNA alone); inactive = no change (siRNA alone)
Shown is a random part of 794 deposited reagents. Over the whole deposit, 24 (3%) are marked active. 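Calls come only from the siRNA-alone arm; drug synergy scores do not affect them.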 A number with no mark means an inactive call. Further read-outs or replicates are left out here. The record does not give: the amount of reagent, the time to read-out.

{"gene symbol": "ADGRL2 (GeneID 23266)", "viability robust z-score, siRNA alone": -1.17}
{"gene symbol": "AMER1 (GeneID 139285)", "viability robust z-score, siRNA alone": 0.472}
{"gene symbol": "GUK1 (GeneID 2987)", "viability robust z-score, siRNA alone": 0.472}
{"gene symbol": "PRKG1 (GeneID 5592)", "viability robust z-score, siRNA alone": 0.472}
{"gene symbol": "NEK11 (GeneID 79858)", "viability robust z-score, siRNA alone": -1.55}
{"gene symbol": "PFKFB2 (GeneID 5208)", "viability robust z-score, siRNA alone": -2.74}
{"gene symbol": "PANK4 (GeneID 55229)", "viability robust z-score, siRNA alone": 0.0651}
{"gene symbol": "PAK2 (GeneID 5062)", "viability robust z-score, siRNA alone": 0.472}
{"gene symbol": "IDH2 (GeneID 3418)", "viability robust z-score, siRNA alone": "-3.7 (active)"}
{"gene symbol": "BMPR1A (GeneID 657)", "viability robust z-score, siRNA alone": "-3.25 (active)"}
{"gene symbol": "JAK1 (GeneID 3716)", "viability robust z-score, siRNA alone": 0.472}
{"gene symbol": "MAP3K3 (GeneID 4215)", "viability robust z-score, siRNA alone": 0.472}

2 of these entries, set out differently.
| gene symbol | viability robust z-score, siRNA alone |
| --- | --- |
| AMER1 (GeneID 139285) | 0.472 |
| GUK1 (GeneID 2987) | 0.472 |
